The list shows a part of the results.
Legend:
Assay in all cases: log2 fold change, soluble protein after heating vs DMSO (PISA); higher = thermal stabilisation; K562 lysate, 10 uM; active = over 0.2 and 3.5 SD of the protein, either way, in both replicates (recomputed)
alvocidib = compound: CN1CC[C@H](c2c(O)cc(O)c3c(=O)cc(-c4ccccc4Cl)oc23)[C@H](O)C1 [alvocidib]
Method in brief: (§1)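 To prepare the extract, K562 pellets were dounce-homogenised in PBS pH 7.4 with 1 mM MgCl2, giving crude material at 1 mg/mL protein. This was treated with 10 μM compound for 30 min, then heated in aliquots for 3 min over 48°C-58°C before pooling and addition of NP-40 to 0.5% at 4°C. Centrifugation at 21,000xg for 90 min left soluble protein in the supernatant, which TMTpro 16plex LC-MS/MS quantified with equalised channel sums. Results are log-two fold changes in thermal stability compared with solvent controls, from duplicates.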

Protein sequences, listed by entry. Tags and fused reporters are not part of them. Lines headed by an entry give the natural chain unless they say otherwise; changes in a name come on top.
UniProt P99999: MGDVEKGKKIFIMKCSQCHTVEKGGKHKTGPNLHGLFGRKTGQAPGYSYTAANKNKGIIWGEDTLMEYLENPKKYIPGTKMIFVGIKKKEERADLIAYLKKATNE
UniProt P39880: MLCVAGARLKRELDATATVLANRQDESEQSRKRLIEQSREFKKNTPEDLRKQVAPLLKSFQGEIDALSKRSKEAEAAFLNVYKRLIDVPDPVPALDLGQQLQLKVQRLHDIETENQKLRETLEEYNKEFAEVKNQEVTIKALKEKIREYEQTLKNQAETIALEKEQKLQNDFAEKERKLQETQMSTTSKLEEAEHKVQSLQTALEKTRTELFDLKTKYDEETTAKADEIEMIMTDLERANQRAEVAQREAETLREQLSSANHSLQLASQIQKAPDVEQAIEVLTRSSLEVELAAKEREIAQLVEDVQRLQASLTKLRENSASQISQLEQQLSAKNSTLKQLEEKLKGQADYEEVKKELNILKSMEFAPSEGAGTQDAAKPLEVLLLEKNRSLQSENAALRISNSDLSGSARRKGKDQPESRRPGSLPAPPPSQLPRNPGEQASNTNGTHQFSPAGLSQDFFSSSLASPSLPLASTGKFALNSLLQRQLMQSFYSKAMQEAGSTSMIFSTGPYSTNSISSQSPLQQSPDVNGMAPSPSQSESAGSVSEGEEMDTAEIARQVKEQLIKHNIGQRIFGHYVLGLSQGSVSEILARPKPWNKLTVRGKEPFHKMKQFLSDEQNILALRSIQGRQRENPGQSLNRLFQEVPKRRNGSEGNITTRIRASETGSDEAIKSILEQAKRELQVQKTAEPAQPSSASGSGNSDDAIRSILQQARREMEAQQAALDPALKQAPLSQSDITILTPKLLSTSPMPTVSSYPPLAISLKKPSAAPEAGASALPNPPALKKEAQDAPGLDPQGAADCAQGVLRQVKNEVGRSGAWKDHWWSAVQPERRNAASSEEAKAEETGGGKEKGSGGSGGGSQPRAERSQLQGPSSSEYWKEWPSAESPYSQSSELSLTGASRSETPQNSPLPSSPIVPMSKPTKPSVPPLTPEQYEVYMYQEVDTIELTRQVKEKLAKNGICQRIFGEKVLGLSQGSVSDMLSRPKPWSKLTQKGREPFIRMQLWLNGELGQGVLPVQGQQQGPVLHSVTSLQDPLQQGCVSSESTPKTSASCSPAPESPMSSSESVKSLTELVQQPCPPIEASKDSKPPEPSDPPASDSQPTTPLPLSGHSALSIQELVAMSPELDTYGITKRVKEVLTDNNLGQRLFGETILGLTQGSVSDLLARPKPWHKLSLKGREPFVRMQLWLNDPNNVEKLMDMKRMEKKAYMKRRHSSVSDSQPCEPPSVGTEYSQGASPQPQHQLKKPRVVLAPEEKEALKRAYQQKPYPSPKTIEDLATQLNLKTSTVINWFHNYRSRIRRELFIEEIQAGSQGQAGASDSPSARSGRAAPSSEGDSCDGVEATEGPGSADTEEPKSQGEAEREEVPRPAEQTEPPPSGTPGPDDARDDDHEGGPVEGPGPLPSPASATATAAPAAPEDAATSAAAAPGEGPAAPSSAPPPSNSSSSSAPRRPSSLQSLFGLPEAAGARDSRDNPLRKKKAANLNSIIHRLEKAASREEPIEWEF
UniProt Q14247: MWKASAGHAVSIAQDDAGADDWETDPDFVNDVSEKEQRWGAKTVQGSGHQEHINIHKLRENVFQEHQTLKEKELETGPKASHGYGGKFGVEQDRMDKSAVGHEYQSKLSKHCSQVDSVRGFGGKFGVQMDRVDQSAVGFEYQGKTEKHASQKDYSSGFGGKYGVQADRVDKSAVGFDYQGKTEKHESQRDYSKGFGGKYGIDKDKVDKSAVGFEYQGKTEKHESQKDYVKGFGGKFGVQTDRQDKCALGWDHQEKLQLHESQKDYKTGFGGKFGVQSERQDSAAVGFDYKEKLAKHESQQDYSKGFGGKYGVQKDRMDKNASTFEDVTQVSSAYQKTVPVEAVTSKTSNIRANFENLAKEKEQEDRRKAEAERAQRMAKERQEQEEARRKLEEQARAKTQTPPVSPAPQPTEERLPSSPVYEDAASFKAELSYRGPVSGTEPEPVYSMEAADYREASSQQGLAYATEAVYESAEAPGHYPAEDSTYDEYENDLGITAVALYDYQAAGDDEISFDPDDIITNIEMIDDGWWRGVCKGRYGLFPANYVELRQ
UniProt Q9NRF8: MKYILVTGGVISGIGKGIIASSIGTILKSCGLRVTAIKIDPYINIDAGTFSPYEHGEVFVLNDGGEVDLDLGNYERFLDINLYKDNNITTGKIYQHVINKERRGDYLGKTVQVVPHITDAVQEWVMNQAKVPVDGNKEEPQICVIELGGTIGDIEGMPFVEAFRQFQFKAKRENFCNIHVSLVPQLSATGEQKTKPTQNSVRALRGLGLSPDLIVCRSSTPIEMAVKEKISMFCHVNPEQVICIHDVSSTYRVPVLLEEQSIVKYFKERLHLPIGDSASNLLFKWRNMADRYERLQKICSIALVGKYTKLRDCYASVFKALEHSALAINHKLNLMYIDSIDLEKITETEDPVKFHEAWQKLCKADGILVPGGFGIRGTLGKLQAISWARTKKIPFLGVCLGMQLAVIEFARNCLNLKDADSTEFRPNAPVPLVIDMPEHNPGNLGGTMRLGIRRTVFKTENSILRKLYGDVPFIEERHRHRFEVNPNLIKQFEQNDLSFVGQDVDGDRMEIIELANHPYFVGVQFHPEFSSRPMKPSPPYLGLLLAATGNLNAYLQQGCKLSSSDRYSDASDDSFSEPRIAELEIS
UniProt Q93034, whole entry, looked up: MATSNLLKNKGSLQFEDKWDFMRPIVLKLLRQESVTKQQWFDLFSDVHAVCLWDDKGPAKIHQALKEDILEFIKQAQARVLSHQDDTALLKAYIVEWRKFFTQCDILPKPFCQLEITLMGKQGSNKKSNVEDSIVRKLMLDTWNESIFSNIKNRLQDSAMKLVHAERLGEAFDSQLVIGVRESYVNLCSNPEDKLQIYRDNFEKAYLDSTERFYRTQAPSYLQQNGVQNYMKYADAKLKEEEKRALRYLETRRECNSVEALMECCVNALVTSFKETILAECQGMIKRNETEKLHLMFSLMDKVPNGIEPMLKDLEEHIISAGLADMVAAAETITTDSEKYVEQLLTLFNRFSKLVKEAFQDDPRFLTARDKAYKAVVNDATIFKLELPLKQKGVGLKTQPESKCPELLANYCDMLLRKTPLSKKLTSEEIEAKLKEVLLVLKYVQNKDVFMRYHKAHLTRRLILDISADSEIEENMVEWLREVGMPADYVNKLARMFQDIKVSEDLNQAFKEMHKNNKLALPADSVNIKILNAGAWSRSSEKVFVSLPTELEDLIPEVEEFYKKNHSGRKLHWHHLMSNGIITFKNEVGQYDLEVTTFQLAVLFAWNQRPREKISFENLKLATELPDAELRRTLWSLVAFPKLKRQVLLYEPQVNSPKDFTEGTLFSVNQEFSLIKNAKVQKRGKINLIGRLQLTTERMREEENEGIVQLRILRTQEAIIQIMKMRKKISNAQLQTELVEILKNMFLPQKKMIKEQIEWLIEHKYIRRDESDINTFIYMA
UniProt P67870, whole entry, looked up: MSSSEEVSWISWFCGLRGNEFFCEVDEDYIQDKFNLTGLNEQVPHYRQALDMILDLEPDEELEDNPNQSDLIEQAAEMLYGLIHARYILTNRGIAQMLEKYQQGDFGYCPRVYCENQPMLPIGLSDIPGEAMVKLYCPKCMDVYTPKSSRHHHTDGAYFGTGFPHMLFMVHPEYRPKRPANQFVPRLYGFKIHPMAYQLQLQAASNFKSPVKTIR
UniProt P13498: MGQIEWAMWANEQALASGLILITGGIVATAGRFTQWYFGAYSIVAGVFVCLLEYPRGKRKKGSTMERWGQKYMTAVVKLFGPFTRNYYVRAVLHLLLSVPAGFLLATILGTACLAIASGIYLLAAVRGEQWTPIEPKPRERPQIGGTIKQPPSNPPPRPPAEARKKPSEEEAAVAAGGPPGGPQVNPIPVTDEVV
UniProt P02511: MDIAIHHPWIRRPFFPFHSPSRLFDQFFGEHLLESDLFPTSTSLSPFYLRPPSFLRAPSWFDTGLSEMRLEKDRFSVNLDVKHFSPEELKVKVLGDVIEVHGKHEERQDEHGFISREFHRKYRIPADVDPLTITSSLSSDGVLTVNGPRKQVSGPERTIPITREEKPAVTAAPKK
UniProt P0DMU9: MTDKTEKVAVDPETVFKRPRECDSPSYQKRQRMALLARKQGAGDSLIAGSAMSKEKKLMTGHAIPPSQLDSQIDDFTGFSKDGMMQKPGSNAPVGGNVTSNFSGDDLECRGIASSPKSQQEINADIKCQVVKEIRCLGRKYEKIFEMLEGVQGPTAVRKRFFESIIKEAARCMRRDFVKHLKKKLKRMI
UniProt Q13616, whole entry, looked up: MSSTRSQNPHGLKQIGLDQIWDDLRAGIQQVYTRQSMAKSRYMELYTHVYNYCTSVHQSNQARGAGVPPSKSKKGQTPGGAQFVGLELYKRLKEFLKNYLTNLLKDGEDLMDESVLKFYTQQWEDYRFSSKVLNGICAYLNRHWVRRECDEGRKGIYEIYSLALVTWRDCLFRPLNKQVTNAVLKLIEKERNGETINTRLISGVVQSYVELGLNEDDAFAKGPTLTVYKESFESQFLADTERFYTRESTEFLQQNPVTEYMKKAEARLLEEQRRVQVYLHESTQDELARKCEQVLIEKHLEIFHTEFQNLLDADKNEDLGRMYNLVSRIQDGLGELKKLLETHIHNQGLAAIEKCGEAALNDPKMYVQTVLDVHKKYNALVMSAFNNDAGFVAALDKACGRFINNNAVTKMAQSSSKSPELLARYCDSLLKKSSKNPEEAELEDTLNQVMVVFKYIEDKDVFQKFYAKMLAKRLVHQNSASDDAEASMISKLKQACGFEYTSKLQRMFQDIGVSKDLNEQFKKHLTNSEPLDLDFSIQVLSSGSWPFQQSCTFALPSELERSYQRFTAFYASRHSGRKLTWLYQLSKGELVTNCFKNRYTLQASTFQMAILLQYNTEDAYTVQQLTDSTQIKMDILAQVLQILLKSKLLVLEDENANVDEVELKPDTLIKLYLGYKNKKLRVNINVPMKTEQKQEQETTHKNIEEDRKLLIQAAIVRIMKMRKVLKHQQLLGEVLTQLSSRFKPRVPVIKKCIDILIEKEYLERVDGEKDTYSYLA
UniProt Q2TBE0: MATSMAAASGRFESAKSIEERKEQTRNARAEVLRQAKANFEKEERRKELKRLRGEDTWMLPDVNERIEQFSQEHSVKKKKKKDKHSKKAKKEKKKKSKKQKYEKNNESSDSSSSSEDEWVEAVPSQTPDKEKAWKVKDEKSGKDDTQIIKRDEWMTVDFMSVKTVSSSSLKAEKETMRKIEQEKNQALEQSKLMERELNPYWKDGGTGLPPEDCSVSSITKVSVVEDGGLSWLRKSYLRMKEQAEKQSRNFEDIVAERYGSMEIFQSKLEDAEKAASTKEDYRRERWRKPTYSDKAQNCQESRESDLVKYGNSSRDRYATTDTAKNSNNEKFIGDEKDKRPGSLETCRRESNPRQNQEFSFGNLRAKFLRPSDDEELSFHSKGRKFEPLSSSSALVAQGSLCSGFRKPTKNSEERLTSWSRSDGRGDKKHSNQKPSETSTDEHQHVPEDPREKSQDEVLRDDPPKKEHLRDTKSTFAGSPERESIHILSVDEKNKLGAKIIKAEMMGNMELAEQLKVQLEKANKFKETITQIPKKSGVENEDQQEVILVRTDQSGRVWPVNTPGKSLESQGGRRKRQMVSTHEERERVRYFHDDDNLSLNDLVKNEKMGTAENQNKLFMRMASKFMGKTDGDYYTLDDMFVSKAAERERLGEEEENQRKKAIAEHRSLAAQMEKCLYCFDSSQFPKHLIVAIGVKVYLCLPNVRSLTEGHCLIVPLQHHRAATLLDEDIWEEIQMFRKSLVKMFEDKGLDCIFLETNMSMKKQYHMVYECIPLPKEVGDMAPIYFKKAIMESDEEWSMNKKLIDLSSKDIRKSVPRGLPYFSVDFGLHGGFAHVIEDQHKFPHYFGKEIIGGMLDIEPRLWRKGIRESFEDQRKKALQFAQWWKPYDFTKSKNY
UniProt O75718: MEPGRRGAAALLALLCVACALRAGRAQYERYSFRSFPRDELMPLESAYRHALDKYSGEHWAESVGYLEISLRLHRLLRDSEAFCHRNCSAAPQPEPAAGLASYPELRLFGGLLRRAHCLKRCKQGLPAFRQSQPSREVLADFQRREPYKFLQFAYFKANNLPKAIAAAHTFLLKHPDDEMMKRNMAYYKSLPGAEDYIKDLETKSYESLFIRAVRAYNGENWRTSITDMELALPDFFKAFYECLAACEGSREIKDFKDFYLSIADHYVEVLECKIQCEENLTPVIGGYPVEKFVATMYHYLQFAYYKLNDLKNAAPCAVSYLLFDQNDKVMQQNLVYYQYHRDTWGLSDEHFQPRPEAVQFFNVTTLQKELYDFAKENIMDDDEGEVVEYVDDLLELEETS

Tubastatin A = compound: CN1CCc2c(c3ccccc3n2Cc2ccc(C(=O)NO)cc2)C1 [Tubastatin A]
Method in brief: as §1

[1] = compound: CNC(=O)C1=CC=CC=C1NC2=NC(=NC=C2Cl)NC3=C(C=C(C=C3)N4CCOCC4)OC
Method in brief: as §1

defactinib = compound: CNC(=O)c1ccc(Nc2ncc(C(F)(F)F)c(NCc3nccnc3N(C)S(C)(=O)=O)n2)cc1 [defactinib]
Method in brief: as §1

[2] = compound: CNc1nc(-c2ccc3c(N)n[nH]c3c2)cc(N2C[C@@H](C(=O)NC3CCCCC3)CC[C@H]2C)n1
Method in brief: as §1

encorafenib = compound: COC(=O)N[C@@H](C)CNc1nccc(-c2cn(C(C)C)nc2-c2cc(Cl)cc(NS(C)(=O)=O)c2F)n1 [encorafenib]
Method in brief: as §1

[3] = compound: COC(=O)[C@H](CCSC)NC(=O)C1=C(C=C(C=C1)NC[C@H](CS)N)C2=CC=CC=C2
Method in brief: as §1

alisertib = compound: COc1cc(Nc2ncc3c(n2)-c2ccc(Cl)cc2C(c2c(F)cccc2OC)=NC3)ccc1C(=O)O [alisertib]
Method in brief: as §1

[4] = compound: COc1cc2nc(-c3cc(F)ccc3O)nc(N[C@@H]3CNC[C@H]3C(C)(C)O)c2cc1OC
Method in brief: as §1

gefitinib = compound: COc1cc2ncnc(Nc3ccc(F)c(Cl)c3)c2cc1OCCCN1CCOCC1 [gefitinib]
Method in brief: as §1

lapatinib = compound: CS(=O)(=O)CCNCc1ccc(-c2ccc3ncnc(Nc4ccc(OCc5cccc(F)c5)c(Cl)c4)c3c2)o1 [lapatinib]
Method in brief: as §1

pictilisib = compound: CS(=O)(=O)N1CCN(Cc2cc3nc(-c4cccc5[nH]ncc45)nc(N4CCOCC4)c3s2)CC1 [pictilisib]
Method in brief: as §1

crizotinib = compound: C[C@@H](Oc1cc(-c2cnn(C3CCNCC3)c2)cnc1N)c1c(Cl)ccc(F)c1Cl [crizotinib]
Method in brief: as §1

[5] = compound: C[C@H](C1=CC=C(C=C1)C(=O)NC2=C3C=CNC3=NC=C2)N
Method in brief: as §1

duvelisib = compound: C[C@H](Nc1ncnc2nc[nH]c12)c1cc2cccc(Cl)c2c(=O)n1-c1ccccc1 [duvelisib]
Method in brief: as §1

gandotinib = compound: Cc1cc(Nc2cc(CN3CCOCC3)c3nc(C)c(Cc4ccc(Cl)cc4F)n3n2)n[nH]1 [gandotinib]
Method in brief: as §1

tozasertib = compound: Cc1cc(Nc2cc(N3CCN(C)CC3)nc(Sc3ccc(NC(=O)C4CC4)cc3)n2)n[nH]1 [tozasertib]
Method in brief: as §1

doramapimod = compound: Cc1ccc(-n2nc(C(C)(C)C)cc2NC(=O)Nc2ccc(OCCN3CCOCC3)c3ccccc23)cc1 [doramapimod]
Method in brief: as §1

bafetinib = compound: Cc1ccc(NC(=O)c2ccc(CN3CC[C@H](N(C)C)C3)c(C(F)(F)F)c2)cc1Nc1nccc(-c2cncnc2)n1 [bafetinib]
Method in brief: as §1

[6] = compound: Cc1cccc(CC(=O)N2CCc3c2ccc(-c2cn(C)c4ncnc(N)c24)c3F)n1
Method in brief: as §1

Measured: log2 fold change

CYCS (UniProt P99999)
inactive: alvocidib -0.003 | Tubastatin A 0.027 | [1] 0.009 | defactinib 0.04 | [2] 0.018 | encorafenib -0.004 | [3] -0.04 | alisertib -0.019 | [4] -0.002 | gefitinib 0.003 | lapatinib 0.015 | pictilisib -0.033 | crizotinib 0.036 | [5] -0.054 | duvelisib -0.039 | gandotinib 0.056 | tozasertib -0.004 | doramapimod -0.029 | bafetinib 0.06 | [6] -0.006

CUX1 isoform 3 (UniProt P39880)
inactive: alvocidib -0.03 | Tubastatin A 0.003 | [1] 0.055 | defactinib -0.006 | [2] 0.005 | encorafenib 0 | [3] 0 | alisertib 0.067 | [4] -0.042 | gefitinib 0.014 | lapatinib -0.01 | pictilisib -0.045 | crizotinib 0.004 | [5] 0.076 | duvelisib 0.007 | gandotinib -0.116 | tozasertib 0.032 | doramapimod -0.025 | bafetinib -0.012 | [6] 0.007

CRBN (UniProt Q96SW2)
inactive: alvocidib -0.035 | Tubastatin A -0.003 | [1] -0.041 | defactinib -0.039 | [2] 0.011 | encorafenib -0.021 | [3] -0.02 | alisertib 0.012 | [4] 0.018 | gefitinib 0.018 | lapatinib 0.02 | pictilisib 0.014 | crizotinib -0.017 | [5] -0.098 | duvelisib 0.007 | gandotinib 0.046 | tozasertib 0.044 | doramapimod 0.032 | bafetinib -0.07 | [6] 0.095

CTDP1 (UniProt Q9Y5B0)
inactive: alvocidib -0.022 | Tubastatin A -0.049 | [1] 0.068 | defactinib -0.016 | [2] 0.025 | encorafenib 0.006 | [3] 0.069 | alisertib -0.054 | [4] 0.028 | gefitinib 0.019 | lapatinib -0.003 | pictilisib -0.016 | crizotinib -0.054 | [5] 0.036 | duvelisib -0.037 | gandotinib -0.029 | tozasertib 0.01 | doramapimod 0.059 | bafetinib -0.03 | [6] -0.003

CTTN isoform 2 (UniProt Q14247)
inactive: alvocidib 0.011 | Tubastatin A 0.059 | [1] 0 | defactinib -0.008 | [2] 0.053 | encorafenib -0.018 | [3] 0.01 | alisertib 0.012 | [4] 0.01 | gefitinib 0.016 | lapatinib 0.008 | pictilisib 0.026 | crizotinib 0.025 | [5] -0.017 | duvelisib -0.022 | gandotinib 0.057 | tozasertib -0.021 | doramapimod -0.025 | bafetinib 0 | [6] -0.016

CTPS2 (UniProt Q9NRF8)
inactive: alvocidib -0.01 | Tubastatin A 0.015 | [1] -0.009 | defactinib 0.01 | [2] -0.006 | encorafenib 0.01 | [3] -0.043 | alisertib -0.017 | [4] 0.011 | gefitinib 0.011 | lapatinib -0.025 | pictilisib -0.018 | crizotinib -0.004 | [5] -0.032 | duvelisib 0.016 | gandotinib -0.002 | tozasertib 0.009 | doramapimod 0.021 | bafetinib 0.077 | [6] 0.003

CUL5 (UniProt Q93034)
inactive: alvocidib -0.02 | Tubastatin A 0.007 | [1] -0.003 | defactinib -0.005 | [2] -0.004 | encorafenib 0.01 | [3] -0.078 | alisertib 0.004 | [4] 0.001 | gefitinib -0.015 | lapatinib -0.017 | pictilisib 0.006 | crizotinib 0.005 | [5] -0.071 | duvelisib -0.012 | gandotinib 0.025 | tozasertib -0.001 | doramapimod 0.016 | bafetinib -0.019 | [6] 0.04

CXorf56 (UniProt Q9H5V9)
inactive: alvocidib -0.053 | Tubastatin A -0.021 | [1] 0.022 | defactinib -0.077 | [2] 0.007 | encorafenib 0.055 | [3] -0.021 | alisertib -0.043 | [4] -0.011 | gefitinib 0.023 | lapatinib -0.011 | pictilisib 0 | crizotinib 0.009 | [5] -0.01 | duvelisib 0.016 | gandotinib 0.037 | tozasertib 0.02 | doramapimod -0.029 | bafetinib -0.008 | [6] -0.028

CSNK2B (UniProt P67870)
active: [1] 0.324
inactive: alvocidib -0.005 | Tubastatin A -0.012 | defactinib 0.025 | [2] 0.053 | encorafenib -0.026 | [3] -0.006 | alisertib -0.054 | [4] 0.052 | gefitinib -0.022 | lapatinib -0.052 | pictilisib 0.023 | crizotinib -0.073 | [5] 0.027 | duvelisib -0.053 | gandotinib 0.016 | tozasertib 0.004 | doramapimod 0.022 | bafetinib 0.064 | [6] -0.05

CYBA (UniProt P13498)
inactive: alvocidib 0.036 | Tubastatin A 0.018 | [1] 0.065 | defactinib -0.071 | [2] 0.01 | encorafenib 0.037 | [3] -0.073 | alisertib -0.071 | [4] -0.139 | gefitinib 0.04 | lapatinib -0.132 | pictilisib -0.017 | crizotinib -0.007 | [5] 0.028 | duvelisib -0.044 | gandotinib -0.074 | tozasertib 0.067 | doramapimod -0.009 | bafetinib -0.031 | [6] -0.038

CTSA (UniProt P10619)
inactive: alvocidib -0.026 | Tubastatin A -0.03 | [1] -0.055 | defactinib 0.053 | [2] -0.049 | encorafenib -0.021 | [3] 0.076 | alisertib -0.066 | [4] -0.003 | gefitinib 0.018 | lapatinib 0.025 | pictilisib -0.006 | crizotinib -0.023 | [5] 0.022 | duvelisib -0.039 | gandotinib 0.017 | tozasertib -0.026 | doramapimod 0.02 | bafetinib -0.055 | [6] 0.029

CRYAB (UniProt P02511)
inactive: alvocidib -0.007 | Tubastatin A 0.205 | [1] -0.006 | defactinib -0.006 | [2] 0.421 | encorafenib -0.014 | [3] 0.018 | alisertib 0.019 | [4] 0.153 | gefitinib 0.25 | lapatinib -0.078 | pictilisib -0.037 | crizotinib -0.159 | [5] -0.006 | duvelisib 0.011 | gandotinib 0.192 | tozasertib -0.075 | doramapimod 0 | bafetinib 0.129 | [6] 0.082

CT45A10 (UniProt P0DMU9)
inactive: alvocidib 0.016 | Tubastatin A -0.026 | [1] -0.022 | defactinib 0.042 | [2] -0.066 | encorafenib 0.007 | [3] -0.065 | alisertib -0.003 | [4] -0.021 | gefitinib 0.034 | lapatinib 0.006 | pictilisib 0.003 | crizotinib 0.098 | [5] 0.043 | duvelisib -0.007 | gandotinib -0.033 | tozasertib 0.011 | doramapimod -0.027 | bafetinib -0.011 | [6] -0.021

CUL1 (UniProt Q13616)
inactive: alvocidib -0.008 | Tubastatin A 0.008 | [1] 0.001 | defactinib -0.019 | [2] 0.013 | encorafenib 0 | [3] -0.042 | alisertib -0.01 | [4] 0.011 | gefitinib -0.038 | lapatinib -0.007 | pictilisib 0.004 | crizotinib 0.014 | [5] -0.007 | duvelisib 0.015 | gandotinib 0.03 | tozasertib -0.001 | doramapimod 0.01 | bafetinib 0.03 | [6] -0.002

CWF19L2 (UniProt Q2TBE0)
inactive: alvocidib -0.014 | Tubastatin A -0.039 | [1] 0.057 | defactinib 0.01 | [2] 0 | encorafenib 0.06 | [3] -0.021 | alisertib -0.014 | [4] -0.177 | gefitinib 0.041 | lapatinib 0.249 | pictilisib -0.033 | crizotinib 0.006 | [5] -0.023 | duvelisib -0.005 | gandotinib 0.122 | tozasertib 0.005 | doramapimod 0.002 | bafetinib -0.091 | [6] 0.046

CRTAP (UniProt O75718)
inactive: alvocidib 0.034 | Tubastatin A -0.077 | [1] 0.017 | defactinib 0.011 | [2] -0.087 | encorafenib 0.006 | [3] 0.006 | alisertib -0.009 | [4] 0.006 | gefitinib 0.028 | lapatinib -0.011 | pictilisib -0.032 | crizotinib 0.071 | [5] 0.081 | duvelisib -0.019 | gandotinib -0.086 | tozasertib 0.016 | doramapimod -0.021 | bafetinib 0.138 | [6] -0.058
